PubChem BioAssay AID272 (DTP/NCI, 2004)
The list is a part of this screen's results and no random one: it is rich in T/C values a quarter to a half above the control, in often repeated tests (any T/C) and in doses without a T/C. Other doses and runs of a compound stand elsewhere. T/C is the treated group as % of the vehicle group. Some entries give survivors of the animals treated and no T/C: the source holds a T/C of zero for them, seemingly a mark for toxic or unscored doses. Some survivor counts are full or nearly so, which does not show that the dose was tolerated: the source hardly ever lists a survival T/C far under the control, and the zero likely stands for such cases as well. Survivors were counted at the toxicity check, usually on the fifth day, unless a day is given; later deaths do not show. Schedule codes are those of the source, read here as Q, the interval in days (D) or hours (H), X, the number of doses. Some entries were tested several times; the values are given in rising order. Some structures stand for samples that the source files as different forms (salt, stereo form or complex); doses refer to the form tested. Brackets with × give the number of equal values in this list. Where survival is the endpoint, the PubChem record calls one and a half times the control and up active, and a quarter to a half above the control has no call in these data; cut-offs in other NCI protocols can differ. Some T/C values carry the count of animals alive at the toxicity check (mostly the fifth day); where none is given, no animal had died by that day.

Test system: Lewis lung carcinoma i.m., BDF1 mice, T/C %
Assay: NCI In Vivo Anticancer Drug Screen. Data for tumor model Lewis Lung Carcinoma (intramuscular) in B6D2F1 (BDF1) mice
Procedure, shortened: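 Tumour-bearing mice were dosed with compound, and either their survival or their tumour size was measured. Results were expressed relative to vehicle-treated controls as T/C.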

[1] = T/C endpoint: median survival time, dose: 50.0 mg/kg/injection, schedule: Q01DX011 (ip), vehicle: Klucel (hydroxypropylcellulose) (HPC), higher T/C = longer survival
[2] = T/C endpoint: median survival time, dose: 50.0 mg/kg/injection, schedule: Q01DX011 (ip), vehicle: saline, higher T/C = longer survival
[3] = T/C endpoint: median survival time, dose: 100.0 mg/kg/injection, schedule: Q01DX011 (ip), vehicle: Klucel (hydroxypropylcellulose) (HPC), higher T/C = longer survival
[4] = T/C endpoint: median survival time, dose: 100.0 mg/kg/injection, schedule: Q01DX011 (ip), vehicle: saline, higher T/C = longer survival
[5] = T/C endpoint: median survival time, dose: 200.0 mg/kg/injection, schedule: Q01DX011 (ip), vehicle: Klucel (hydroxypropylcellulose) (HPC), higher T/C = longer survival
[6] = T/C endpoint: median survival time, dose: 400.0 mg/kg/injection, schedule: Q01DX011 (ip), vehicle: Klucel (hydroxypropylcellulose) (HPC), higher T/C = longer survival
[7] = T/C endpoint: median survival time, dose: 50.0 mg/kg/injection, schedule: Q01DX011 (ip), vehicle: saline with Tween-80, higher T/C = longer survival

With `CS(=O)(=O)OCCC(=O)N1CCN(C(=O)CCOS(C)(=O)=O)CC1` the survivor count (T/C endpoint: mean tumor weight, dose: 100.0 mg/kg/injection, schedule: Q01DX011 (ip), vehicle: saline, higher T/C = larger tumour) was 5 of 8, the survivor count (T/C endpoint: mean tumor weight, dose: 200.0 mg/kg/injection, schedule: Q01DX011 (ip), vehicle: saline, higher T/C = larger tumour) was 1 of 8 and the survivor count [1] was 4 of 8. The survivor count [2] was 7 of 8, the survivor count [3] was 6 of 8 and the survivor count [4] was 5 of 8. For the same compound, the survivor count [5] was 0 of 8, the survivor count (T/C endpoint: median survival time, dose: 200.0 mg/kg/injection, schedule: Q01DX011 (ip), vehicle: saline, higher T/C = longer survival) was 1 of 8 and the survivor count [6] was 0 of 8.
For `CN(C)CCCNc1c2ccccc2nc2cccc([N+](=O)[O-])c12`, the survivor count (T/C endpoint: median survival time, dose: 0.2 mg/kg/injection, schedule: Q02DX011 (ip), vehicle: saline, higher T/C = longer survival) was 7 of 7, the survivor count (T/C endpoint: median survival time, dose: 0.3 mg/kg/injection, schedule: Q02DX011 (ip), vehicle: saline, higher T/C = longer survival) was 7 of 7 and the survivor count (T/C endpoint: median survival time, dose: 2.0 micrograms/kg/injection, schedule: Q01DX009 (ip), vehicle: saline, higher T/C = longer survival) was 10 of 10. For the same compound, the survivor count (T/C endpoint: median survival time, dose: 8.0 micrograms/kg/injection, schedule: Q01DX009 (ip), vehicle: saline, higher T/C = longer survival) was 10 of 10, the survivor count (T/C endpoint: median survival time, dose: 16.0 micrograms/kg/injection, schedule: Q01DX009 (ip), vehicle: saline, higher T/C = longer survival) was 10 of 10 and the survivor count (T/C endpoint: median survival time, dose: 32.0 micrograms/kg/injection, schedule: Q01DX009 (ip), vehicle: saline, higher T/C = longer survival) was 10 of 10.
`O=C(O)CCCc1ccc(N(CCCl)CCCl)cc1` was tested, and the survivor count (T/C endpoint: mean tumor weight, dose: 15.0 mg/kg/injection, schedule: Q01DX011 (ip), vehicle: carboxymethylcellulose (CMC), higher T/C = larger tumour) was 4 of 8, the survivor count (T/C endpoint: median survival time, dose: 15.0 mg/kg/injection, schedule: Q01DX011 (ip), vehicle: carboxymethylcellulose (CMC), higher T/C = longer survival) was 4 of 8 and the survivor count (T/C endpoint: median survival time, dose: 16.0 mg/kg/injection, schedule: Q01DX011 (ip), vehicle: saline, higher T/C = longer survival) was 4 of 10 and 7 of 10. For the same compound, the survivor count (T/C endpoint: median survival time, dose: 32.0 mg/kg/injection, schedule: Q01DX011 (ip), vehicle: saline, higher T/C = longer survival) was 0 of 10 and 3 of 10.
In the case of `CCOC(=O)C(CS)NC(=O)CCNC(C)=O` (stereo unspecified), the T/C (T/C endpoint: median survival time, dose: 16.0 mg/kg/injection, schedule: Q01DX009 (ip), vehicle: water, higher T/C = longer survival) is reported as 133 % of control.
`CCC[CH2][Sn](=[S])[CH2]CCC` was tested, and the survivor count [7] was 0 of 8.
For `O=C1C(=O)c2ccccc2C(O)=C1CC=C(Cl)Cl`, the survivor count (T/C endpoint: mean tumor weight (est.), dose: 100.0 mg/kg/injection, schedule: Q01DX011 (ip), vehicle: saline with Tween-80, higher T/C = larger tumour) was 3 of 8, the survivor count (T/C endpoint: mean tumor weight, dose: 15.0 mg/kg/injection, schedule: Q01DX011 (oral), vehicle: saline, higher T/C = larger tumour) was 5 of 8 and the survivor count (T/C endpoint: mean tumor weight, dose: 30.0 mg/kg/injection, schedule: Q01DX011 (oral), vehicle: saline, higher T/C = larger tumour) was 5 of 8. For the same compound, the survivor count (T/C endpoint: mean tumor weight, dose: 40.0 mg/kg/injection, schedule: Q01DX011 (oral), vehicle: saline, higher T/C = larger tumour) was 4 of 8, the survivor count (T/C endpoint: mean tumor weight, dose: 60.0 mg/kg/injection, schedule: Q01DX011 (ip), vehicle: saline, higher T/C = larger tumour) was 3 of 8 and the survivor count (T/C endpoint: mean tumor weight, dose: 80.0 mg/kg/injection, schedule: Q01DX011 (oral), vehicle: saline, higher T/C = larger tumour) was 1 of 8. For the same compound, the survivor count (T/C endpoint: mean tumor weight, dose: 100.0 mg/kg/injection, schedule: Q01DX011 (ip), vehicle: other, higher T/C = larger tumour) was 4 of 8, the T/C (T/C endpoint: median survival time, dose: 10.0 mg/kg/injection, schedule: Q01DX011 (ip), vehicle: saline, higher T/C = longer survival) was 125 % of control and the survivor count (T/C endpoint: median survival time, dose: 15.0 mg/kg/injection, schedule: Q01DX011 (oral), vehicle: saline, higher T/C = longer survival) was 5 of 8. For the same compound, the survivor count (T/C endpoint: median survival time, dose: 30.0 mg/kg/injection, schedule: Q01DX011 (oral), vehicle: saline, higher T/C = longer survival) was 5 of 8, the survivor count (T/C endpoint: median survival time, dose: 40.0 mg/kg/injection, schedule: Q01DX011 (ip), vehicle: saline, higher T/C = longer survival) was 8 of 8 and the survivor count (T/C endpoint: median survival time, dose: 40.0 mg/kg/injection, schedule: Q01DX011 (oral), vehicle: saline, higher T/C = longer survival) was 4 of 8. The survivor count [7] was 6 of 8, the survivor count (T/C endpoint: median survival time, dose: 60.0 mg/kg/injection, schedule: Q01DX011 (ip), vehicle: saline, higher T/C = longer survival) was 3 of 8 and the survivor count (T/C endpoint: median survival time, dose: 80.0 mg/kg/injection, schedule: Q01DX011 (ip), vehicle: saline, higher T/C = longer survival) was 0 of 8. For the same compound, the survivor count (T/C endpoint: median survival time, dose: 80.0 mg/kg/injection, schedule: Q01DX011 (oral), vehicle: saline, higher T/C = longer survival) was 1 of 8, the survivor count (T/C endpoint: median survival time, dose: 100.0 mg/kg/injection, schedule: Q01DX011 (ip), vehicle: saline with Tween-80, higher T/C = longer survival) was 3 of 8 and the survivor count (T/C endpoint: median survival time, dose: 160.0 mg/kg/injection, schedule: Q01DX011 (oral), vehicle: saline, higher T/C = longer survival) was 0 of 8. The survivor count (T/C endpoint: median survival time, dose: 320.0 mg/kg/injection, schedule: Q01DX011 (oral), vehicle: saline, higher T/C = longer survival) was 0 of 8.
`O=C1CCCN1.O=C1CCCN1.[Br][Co][Br]` was tested, and the survivor count (T/C endpoint: median survival time, dose: 150.0 mg/kg/injection, schedule: Q01DX011 (ip), vehicle: water, higher T/C = longer survival) was 0 of 8 and the survivor count (T/C endpoint: median survival time, dose: 300.0 mg/kg/injection, schedule: Q01DX011 (ip), vehicle: water, higher T/C = longer survival) was 0 of 8.
`CCOC(N)=O` was tested, and the survivor count [2] was 6 of 8.
With `N=c1ccn2c(n1)OC1C(O)C(CO)OC12` (stereo unspecified) the survivor count (T/C endpoint: mean tumor weight, dose: 800.0 mg/kg/injection, schedule: Q01DX011 (ip), vehicle: water, higher T/C = larger tumour) was 5 of 8 and the survivor count (T/C endpoint: median survival time, dose: 800.0 mg/kg/injection, schedule: Q01DX011 (ip), vehicle: water, higher T/C = longer survival) was 5 of 8.
For `CC1CC(C)(O)CC(C(O)CC2CC(=O)NC(=O)C2)C1=O` (stereo unspecified), the survivor count (T/C endpoint: mean tumor weight, dose: 0.2 mg/kg/injection, schedule: Q01DX011 (ip), vehicle: saline, higher T/C = larger tumour) was 4 of 8, the survivor count (T/C endpoint: mean tumor weight, dose: 0.4 mg/kg/injection, schedule: Q01DX011 (ip), vehicle: saline, higher T/C = larger tumour) was 2 of 8 and the survivor count (T/C endpoint: median survival time, dose: 0.2 mg/kg/injection, schedule: Q01DX011 (ip), vehicle: saline, higher T/C = longer survival) was 4 of 8. The survivor count (T/C endpoint: median survival time, dose: 0.4 mg/kg/injection, schedule: Q01DX011 (ip), vehicle: saline, higher T/C = longer survival) was 2 of 8 and the survivor count (T/C endpoint: median survival time, dose: 0.8 mg/kg/injection, schedule: Q01DX011 (ip), vehicle: saline, higher T/C = longer survival) was 0 of 8.
For `C=CCNC(=O)NCC=C`, the survivor count (T/C endpoint: mean tumor weight, dose: 3.12 mg/kg/injection, schedule: Q01DX011 (ip), vehicle: saline with Tween-80, higher T/C = larger tumour) was 5 of 8 and the survivor count (T/C endpoint: median survival time, dose: 3.12 mg/kg/injection, schedule: Q01DX011 (ip), vehicle: saline with Tween-80, higher T/C = longer survival) was 5 of 8.
`OC(CBr)C(O)C(O)C(O)CBr` (stereo unspecified) was tested, and the survivor count (T/C endpoint: mean tumor weight, dose: 62.5 mg/kg/injection, schedule: Q01DX011 (ip), vehicle: Klucel (hydroxypropylcellulose) (HPC), higher T/C = larger tumour) was 5 of 8, the survivor count (T/C endpoint: mean tumor weight, dose: 500.0 mg/kg/injection, schedule: Q01DX011 (ip), vehicle: Klucel (hydroxypropylcellulose) (HPC), higher T/C = larger tumour) was 3 of 8 and the T/C [1] was 126 % of control. For the same compound, the survivor count (T/C endpoint: median survival time, dose: 62.5 mg/kg/injection, schedule: Q01DX011 (ip), vehicle: Klucel (hydroxypropylcellulose) (HPC), higher T/C = longer survival) was 5 of 8, the T/C [3] was 130 % of control [7 of 8 alive] and the survivor count [5] was 8 of 8. The survivor count [6] was 3 of 8 and 7 of 8, the survivor count (T/C endpoint: median survival time, dose: 500.0 mg/kg/injection, schedule: Q01DX011 (ip), vehicle: Klucel (hydroxypropylcellulose) (HPC), higher T/C = longer survival) was 3 of 8 and the survivor count (T/C endpoint: median survival time, dose: 800.0 mg/kg/injection, schedule: Q01DX011 (ip), vehicle: Klucel (hydroxypropylcellulose) (HPC), higher T/C = longer survival) was 0 of 8 (3×).
With `NCC(=O)c1ccc(O)c(O)c1` the survivor count (T/C endpoint: mean tumor weight (est.), dose: 400.0 mg/kg/injection, schedule: Q01DX011 (ip), vehicle: saline, higher T/C = larger tumour) was 1 of 8, the survivor count (T/C endpoint: mean tumor weight (est.), dose: 800.0 mg/kg/injection, schedule: Q01DX011 (ip), vehicle: saline, higher T/C = larger tumour) was 1 of 8 and the survivor count [4] was 7 of 8. The survivor count (T/C endpoint: median survival time, dose: 400.0 mg/kg/injection, schedule: Q01DX011 (ip), vehicle: saline, higher T/C = longer survival) was 1 of 8 and the survivor count (T/C endpoint: median survival time, dose: 800.0 mg/kg/injection, schedule: Q01DX011 (ip), vehicle: saline, higher T/C = longer survival) was 1 of 8.
With `O=S(=O)(O)SCCNCCCCCC1CCCCC1` the survivor count (T/C endpoint: mean tumor weight (est.), dose: 12.0 mg/kg/injection, schedule: Q01DX011 (ip), vehicle: saline, higher T/C = larger tumour) was 5 of 8 and the survivor count (T/C endpoint: median survival time, dose: 12.0 mg/kg/injection, schedule: Q01DX011 (ip), vehicle: saline, higher T/C = longer survival) was 5 of 8.
With `CCCCc1ccc(NC(=O)N(CCCl)N=O)cc1` the survivor count (T/C endpoint: median survival time, dose: 8.4 mg/kg/injection, schedule: Q07DX003 (ip), vehicle: Klucel (hydroxypropylcellulose) (HPC), higher T/C = longer survival) was 8 of 8.
`Nc1cc(S(N)(=O)=O)ccc1SSc1ccc(S(N)(=O)=O)cc1N` was tested, and the survivor count (T/C endpoint: mean tumor weight (est.), dose: 250.0 mg/kg/injection, schedule: Q01DX011 (ip), vehicle: saline with Tween-80, higher T/C = larger tumour) was 4 of 8 and the survivor count (T/C endpoint: median survival time, dose: 250.0 mg/kg/injection, schedule: Q01DX011 (ip), vehicle: saline with Tween-80, higher T/C = longer survival) was 4 of 8.
